PubChem BioAssay AID1224830 | NIAID | 2016
This is one part, drawn at random, of about 18,000 reagents tested. In the full data, about 2,900 (16%) got an active call. 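Calls are made per well; low scores hint the gene aids the LPS response, high scores that it dampens it.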 Repeated entries: four replicate wells of each siRNA pool.

Test: 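Genes whose knock-down alters the TNF-alpha reporter response to LPS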 (primary screen)
System: human THP-1 monocytic leukaemia cells, TNF dual-luciferase reporter clone, PMA-differentiated to macrophage-like cells
Knock-down reagent: siRNA pool against human genes, 50 nM
Time to read-out: LPS for 4 h, given about 3 days after siRNA transfection
Challenge: bacterial LPS (TLR4 ligand), 10 ng/ml
Detection: 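Ratio of firefly to renilla light, scaled to the plate median and expressed as a robust z-score per replicate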
Reading the numbers: TNF reporter robust z-score: higher = stronger TNF reporter response to LPS
Hit rule: 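Each well counts as active if its z-score is over 2.8 or under -1.5; controls are left without a call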

target gene | PubChem SID | TNF reporter robust z-score | outcome
LRFN2 | SID315458419 | 0.03 | inactive
LRFN2 | SID315458419 | -0.85 | inactive
LRFN2 | SID315458419 | 1.57 | inactive
LRFN2 | SID315458419 | 1.91 | inactive
SSTR3 (somatostatin receptor 3) | SID315451656 | -0.55 | inactive
SSTR3 (somatostatin receptor 3) | SID315451656 | 0.4 | inactive
SSTR3 (somatostatin receptor 3) | SID315451656 | 0.03 | inactive
SSTR3 (somatostatin receptor 3) | SID315451656 | 0.36 | inactive
NOX1 (NADPH oxidase 1) | SID315455888 | 0.69 | inactive
NOX1 (NADPH oxidase 1) | SID315455888 | -0.57 | inactive
NOX1 (NADPH oxidase 1) | SID315455888 | -0.63 | inactive
NOX1 (NADPH oxidase 1) | SID315455888 | -0.45 | inactive
ANGPTL4 (angiopoietin like 4) | SID315456496 | -1.35 | inactive
ANGPTL4 (angiopoietin like 4) | SID315456496 | 0.29 | inactive
ANGPTL4 (angiopoietin like 4) | SID315456496 | 0.12 | inactive
ANGPTL4 (angiopoietin like 4) | SID315456496 | 1.03 | inactive
RBM48 (RNA binding motif protein 48) | SID315460164 | -0.15 | inactive
RBM48 (RNA binding motif protein 48) | SID315460164 | 0.93 | inactive
RBM48 (RNA binding motif protein 48) | SID315460164 | -0.17 | inactive
RBM48 (RNA binding motif protein 48) | SID315460164 | 1.9 | inactive
TBX21 (T-box transcription factor 21) | SID315456279 | -0.1 | inactive
TBX21 (T-box transcription factor 21) | SID315456279 | 0.63 | inactive
TBX21 (T-box transcription factor 21) | SID315456279 | 0.3 | inactive
TBX21 (T-box transcription factor 21) | SID315456279 | 0.86 | inactive
HOXD8 (homeobox D8) | SID315449297 | -0.25 | inactive
HOXD8 (homeobox D8) | SID315449297 | -0.08 | inactive
HOXD8 (homeobox D8) | SID315449297 | -0.55 | inactive
HOXD8 (homeobox D8) | SID315449297 | 1.42 | inactive
THRSP (thyroid hormone responsive) | SID315451871 | 0.91 | inactive
THRSP (thyroid hormone responsive) | SID315451871 | -0.12 | inactive
THRSP (thyroid hormone responsive) | SID315451871 | 0.05 | inactive
THRSP (thyroid hormone responsive) | SID315451871 | 0.38 | inactive
STAC2 (SH3 and cysteine rich domain 2) | SID315464137 | -0.6 | inactive
STAC2 (SH3 and cysteine rich domain 2) | SID315464137 | 0.01 | inactive
STAC2 (SH3 and cysteine rich domain 2) | SID315464137 | -0.82 | inactive
STAC2 (SH3 and cysteine rich domain 2) | SID315464137 | -0.18 | inactive
ZSWIM9 (zinc finger SWIM-type containing 9) | SID315464344 | 0 | inactive
ZSWIM9 (zinc finger SWIM-type containing 9) | SID315464344 | 0.73 | inactive
ZSWIM9 (zinc finger SWIM-type containing 9) | SID315464344 | 0.53 | inactive
ZSWIM9 (zinc finger SWIM-type containing 9) | SID315464344 | 2.24 | inactive
TBC1D7 (TBC1 domain family member 7) | SID315456587 | – | inactive
TBC1D7 (TBC1 domain family member 7) | SID315456587 | -0.38 | inactive
TBC1D7 (TBC1 domain family member 7) | SID315456587 | -0.43 | inactive
TBC1D7 (TBC1 domain family member 7) | SID315456587 | 0.42 | inactive
TBC1D7 (TBC1 domain family member 7) | SID315456587 | -0.49 | inactive
GTF2F1 (general transcription factor IIF subunit 1) | SID315449094 | 2.1 | inactive
GTF2F1 (general transcription factor IIF subunit 1) | SID315449094 | 3.81 | active
GTF2F1 (general transcription factor IIF subunit 1) | SID315449094 | 2.05 | inactive
GTF2F1 (general transcription factor IIF subunit 1) | SID315449094 | 0.52 | inactive
RINL (Ras and Rab interactor like) | SID315461714 | -0.48 | inactive
RINL (Ras and Rab interactor like) | SID315461714 | -1.03 | inactive
RINL (Ras and Rab interactor like) | SID315461714 | -0.8 | inactive
RINL (Ras and Rab interactor like) | SID315461714 | -0.12 | inactive
RINT1 (RAD50 interactor 1) | SID315458726 | -0.12 | inactive
RINT1 (RAD50 interactor 1) | SID315458726 | 0.82 | inactive
RINT1 (RAD50 interactor 1) | SID315458726 | 0.25 | inactive
RINT1 (RAD50 interactor 1) | SID315458726 | 1.04 | inactive
RNASE9 (ribonuclease A family member 9 (inactive)) | SID315464649 | -0.31 | inactive
RNASE9 (ribonuclease A family member 9 (inactive)) | SID315464649 | -0.47 | inactive
RNASE9 (ribonuclease A family member 9 (inactive)) | SID315464649 | 0.92 | inactive
RNASE9 (ribonuclease A family member 9 (inactive)) | SID315464649 | 0.89 | inactive
TRAM1L1 (translocation associated membrane protein 1 like 1) | SID315461938 | -0.3 | inactive
TRAM1L1 (translocation associated membrane protein 1 like 1) | SID315461938 | -0.9 | inactive
TRAM1L1 (translocation associated membrane protein 1 like 1) | SID315461938 | 0.07 | inactive
TRAM1L1 (translocation associated membrane protein 1 like 1) | SID315461938 | 0.78 | inactive
SELPLG (selectin P ligand) | SID315451370 | 0.17 | inactive
SELPLG (selectin P ligand) | SID315451370 | -0.82 | inactive
SELPLG (selectin P ligand) | SID315451370 | -0.98 | inactive
SELPLG (selectin P ligand) | SID315451370 | -0.52 | inactive
CREBL2 (cAMP responsive element binding protein like 2) | SID315448086 | -0.14 | inactive
CREBL2 (cAMP responsive element binding protein like 2) | SID315448086 | 0.13 | inactive
CREBL2 (cAMP responsive element binding protein like 2) | SID315448086 | -0.49 | inactive
CREBL2 (cAMP responsive element binding protein like 2) | SID315448086 | 0.92 | inactive
CYLD (CYLD lysine 63 deubiquitinase) | SID315448198 | -1.71 | active
CYLD (CYLD lysine 63 deubiquitinase) | SID315448198 | -1.97 | active
CYLD (CYLD lysine 63 deubiquitinase) | SID315448198 | -2.07 | active
